Results deposited as PubChem BioAssay AID504784 (Drosophila RNAi Screening Center, 2011)

Assay: 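Genome-wide knock-down for genes giving too much or too little stored lipid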 (primary screen)
System: Drosophila Kc167 embryonic cells
Reagents: long dsRNA against Drosophila genes, about 250 ng dsRNA per well
Timing: 4 days
Conditions: cells fed 400 µM oleic acid bound to BSA
Measured: 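Cells imaged and segmented; ratio of lipid droplet area to nuclear area, log-transformed, then normalised as a B-score over the screen; higher means more stored lipid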
Direction: droplet/nuclear area B-score: higher = more stored lipid (overstorage)
The deposit covers about 17,000 reagents; this is a random part of those that have a named target and a result. 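Each column is one replicate's B-score; the combined score over replicates was not deposited, so single values may mislead.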 Names joined by + are all predicted targets of the reagent. Further read-outs or replicates are left out here.

The opening 4 records as a preview:
Gene | amplicon | droplet/nuclear area B-score, replicate 1 | droplet/nuclear area B-score, replicate 2
Fbw5 | DRSC03146 | -2.28 | 0.534
CG31562 (retired record) | DRSC12273 | 0.0164 | -0.672
CG31562 (retired record) | DRSC12274 | -1.56 | -0.95
Ctr1B + Poxm | DRSC16245 | 11.2 | 5.73

Results, from the first entry:
Gene | amplicon | droplet/nuclear area B-score, replicate 1 | droplet/nuclear area B-score, replicate 2
Fbw5 | DRSC03146 | -2.28 | 0.534
CG31562 (retired record) | DRSC12273 | 0.0164 | -0.672
CG31562 (retired record) | DRSC12274 | -1.56 | -0.95
Ctr1B + Poxm | DRSC16245 | 11.2 | 5.73
jef | DRSC06198 | -0.933 | -2.36
Rbpn-5 | DRSC04440 | 0.553 | 1.81
CG10555 | DRSC17748 | 0.673 | 1.6
CG10555 | DRSC23202 | 0.628 | 0.567
Tsp47F | DRSC07325 | -0.621 | -0.244
CoRest | DRSC19881 | -0.0093 | 1.35
CoRest | DRSC21626 | -0.459 | -0.667
CoRest | DRSC22305 | 7.86 | 1.71
ND-51 | DRSC03145 | 2.06 | 7.61
hh | DRSC16965 | 0.919 | 0.794
CenG1A | DRSC02538 | -0.526 | -1.09
CenG1A | DRSC03505 | 0.516 | -0.39
CenG1A | DRSC03506 | -1.44 | 3.58
Pka-C3 | DRSC09402 | 0.684 | -0.481
Pka-C3 | DRSC11254 | -2.03 | -4.44
Fbxl7 | DRSC15553 | 1.96 | 0.959
CG7888 | DRSC10926 | -0.955 | 0.237
Osi15 | DRSC12178 | -0.0583 | -0.345
CG5664 | DRSC11782 | -0.00855 | 0.684
CG31121 | DRSC15361 | -0.54 | 0.635
CG31121 | DRSC15363 | 1.91 | -1.85
CG10214 | DRSC14213 | -0.819 | 1.34
CG3603 | DRSC18317 | -0.0364 | 0.385
PCID2 | DRSC10822 | 0.742 | 5.45
CG7550 | DRSC10875 | -0.932 | 1.78
Pis | DRSC20178 | 1.4 | 0.546
CG15019 | DRSC08473 | 1.42 | -0.724
Ptpmeg2 | DRSC18277 | 0.314 | 0.27
Ptpmeg2 | DRSC18278 | 0.054 | -0.639
Ptpmeg2 | DRSC23303 | -0.704 | 0.805
MCPH1 | DRSC06309 | 1.11 | 0.0127
MCPH1 | DRSC07308 | 0.0315 | 2.8
MCPH1 | DRSC22536 | -1 | 0.791
qkr58E-1 | DRSC04709 | 0.685 | 1.02
CG13154 | DRSC06279 | 0.707 | -0.594
Rcd2 | DRSC11756 | -2.18 | -0.96
vih | DRSC09778 | 0.537 | -0.0549
Hen1 | DRSC06139 | -3.86 | -0.24
Hen1 | DRSC06140 | 0.342 | -2.73
UQCR-14L | DRSC15288 | -0.105 | -0.942
UQCR-14L | DRSC22425 | -0.884 | -0.137
Ir7d | DRSC18010 | 1.68 | 0.811
CG16976 (retired record) | DRSC08262 | -3.2 | 0.468
CG16976 (retired record) | DRSC08499 | -0.588 | -0.434
CG31601 | DRSC03678 | -0.337 | 0.2
Obp58d | DRSC04162 | 0.553 | -0.54
Syn | DRSC16876 | -0.76 | -0.824
CG3552 | DRSC10370 | 0.255 | -0.0512
cac | DRSC19743 | -1.8 | -2.69
cac | DRSC20354 | 1.54 | 1.21
CG31674 | DRSC03208 | -0.672 | -1.52
CG9257 | DRSC03173 | -0.0487 | -0.226
CG15145 | DRSC02446 | 0.492 | 0.935
Grl36b | DRSC01627 | -0.103 | -0.0116
yellow-b | DRSC03639 | 0.954 | -0.301
eIF3m | DRSC07142 | 3.08 | 3.37
CG12253 | DRSC02153 | -0.497 | 0.173
CG34166 | DRSC02482 | 1.67 | -1.08
ics | DRSC01878 | -0.632 | -0.275
ft | DRSC00819 | 0.283 | 0.848
QC | DRSC09736 | 0.0196 | -0.943
wus | DRSC20278 | -0.521 | -0.00901
CG31097 | DRSC14666 | 0.339 | -0.0392
TwdlH | DRSC14735 | 0.0783 | 0.509
Exo84 | DRSC15965 | -0.0575 | 0.0558
CG13204 | DRSC06328 | -1.06 | -0.67
wds | DRSC18852 | -0.0483 | -0.703
CG8870 | DRSC16452 | 1.45 | 0.86
CG8907 | DRSC16453 | 5.36 | 0.229
SecCl | DRSC10887 | -0.316 | -0.323
CG10132 | DRSC02013 | -2.62 | 0.13
PMCA | DRSC17114 | -1.18 | -1.4
PMCA | DRSC17154 | 0.0658 | –
Obp58b | DRSC04161 | 0.321 | 0.04
CG7079 | DRSC16192 | -0.0805 | 2.82
Trf4 | DRSC00729 | -0.798 | 1.54
CG15544 | DRSC15082 | -0.709 | -0.0402
ena | DRSC05779 | -0.648 | 0.74
ena | DRSC07610 | 1.31 | -0.212
